Assay results reported in the supplement of paper PMC3334620.
The full ranking holds about 33,000 sequences; the median of “E-score (-0.5 to 0.5)” is about -8e-05, and the highest 2% start at about 0.23. The list shows a part of the results.

target: T1, Nrg2 (UniProt P38082); assay: PBM E-score (8-mer binding enrichment) (E-score (-0.5 to 0.5)); higher = stronger / more preferred TF binding; conditions: protein concentration: 100 nM; construct: GST-full length
T1 sequence: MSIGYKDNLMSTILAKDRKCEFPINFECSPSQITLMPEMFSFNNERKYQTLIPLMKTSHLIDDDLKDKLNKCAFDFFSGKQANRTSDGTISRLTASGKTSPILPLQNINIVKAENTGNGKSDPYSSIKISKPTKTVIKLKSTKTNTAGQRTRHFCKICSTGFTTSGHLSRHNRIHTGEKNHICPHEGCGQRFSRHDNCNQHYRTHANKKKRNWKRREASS
Experimental: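 Universal 'all 10-mer' protein binding microarrays (Agilent AMADID 015681) probed with GST-tagged S. cerevisiae TFs (full-length or DBD) made by in vitro transcription/translation (PURExpress), about 100-200 nM. Bound TF was detected with fluorescent anti-GST. Each ungapped 8-mer (which stands for itself and its reverse complement) is scored by the PBM enrichment score (E-score), a modified Wilcoxon-Mann-Whitney statistic from -0.5 to +0.5, computed with the Universal PBM Analysis Suite. Scale: above 0.35 generally sequence-specific binding.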

Row | Sequence | PBM E-score
1 | CTGATTGA | -0.0639
2 | AAACCACT | -0.0847
3 | GCCCGGAC | -0.195
4 | AATAGCGA | 0.162
5 | CCTCCGAA | -0.0597
6 | GAACAGGC | -0.0749
7 | AATACCTG | 0.0544
8 | ACTCGCTA | 0.0669
9 | GCACTTCC | -0.22
10 | GCAATCAC | -0.0277
11 | AATGAGGC | -0.0739
12 | ATTCCCAC | -0.0393
13 | AAAGGCGG | -0.0401
14 | TAGGCAAA | -0.0554
15 | ACATTTAA | 0.12
16 | ACGATATG | 0.222
17 | GCCCGCAC | 0.0493
18 | ATGTACGC | 0.0402
19 | CTGACTCC | -0.108
20 | GCACGGTA | -0.162
21 | ACGAGAAC | 0.0558
22 | CTCTTAAC | 0.031

Row | Sequence | PBM E-score
23 | ACCTGATC | -0.0367
24 | AACGCTTG | 0.0225
25 | TATCAAGA | 0.156
26 | ACAGAACC | -0.076
27 | TGTATAAA | 0.0257
28 | AAACCCTC | 0.0534
29 | CAGCAACC | -0.157
30 | TACTATAA | 0.177
31 | CGAGAGCG | 0.0292
32 | CAGGCGCG | 0.231
33 | CCGCTCCG | -0.0142
34 | ACTCGGAG | 0.0921
35 | ACCCATAT | 0.15
36 | GTTTACGA | -0.00773
37 | AACGATGA | 0.0545
38 | AGTTCCTA | 0.0803
39 | ACAGAAGC | 0.0183
40 | GCCATGGC | -0.103
41 | CTCCCAGA | -0.253
42 | ATACGAAC | 0.0999
43 | GAGGGGGA | -0.352
44 | AGCACCCA | -0.205

Row | Sequence | PBM E-score
45 | GCCTGGGA | -0.0475
46 | ACTGATCG | -0.097
47 | CATCGAAC | 0.227
48 | ACGGCAGA | 0.1
49 | AAACTACA | 0.147
50 | AACTTAGT | 0.173
51 | ATCATGTG | 0.0272
52 | CGGGATAC | -0.0886
53 | GGCTCCCC | -0.249
54 | ATAATGCG | 0.0621
55 | CCTGTACC | -0.0308
56 | AATGAGAA | -0.0126
57 | CCGACAAC | -0.0927
58 | CCTGTCAC | -0.0773
59 | AGGTGGGC | -0.117
60 | AACCGTTC | -0.0508
61 | AGTCGAAT | -0.0128
62 | ACCCACCT | -0.124
63 | GTGAAGTA | -0.0907
64 | CCCGAGGG | -0.0412
65 | ATTTCGTC | 0.158
66 | TATAACAA | 0.186

Some of the entries so far, with tabs.
Row	Sequence	PBM E-score
40	GCCATGGC	-0.103
41	CTCCCAGA	-0.253
42	ATACGAAC	0.0999
43	GAGGGGGA	-0.352
44	AGCACCCA	-0.205
45	GCCTGGGA	-0.0475
46	ACTGATCG	-0.097
47	CATCGAAC	0.227
48	ACGGCAGA	0.1
51	ATCATGTG	0.0272
52	CGGGATAC	-0.0886
53	GGCTCCCC	-0.249
54	ATAATGCG	0.0621
55	CCTGTACC	-0.0308
56	AATGAGAA	-0.0126
57	CCGACAAC	-0.0927
58	CCTGTCAC	-0.0773
59	AGGTGGGC	-0.117
60	AACCGTTC	-0.0508
61	AGTCGAAT	-0.0128
62	ACCCACCT	-0.124
63	GTGAAGTA	-0.0907
64	CCCGAGGG	-0.0412
65	ATTTCGTC	0.158

(further entries)

Row | Sequence | PBM E-score
67 | CGGGGAGC | -0.0803
68 | CGCACGAC | -0.0564
69 | ATTGCACA | 0.075
70 | GAGAAGTA | 0.0136
71 | ATAAGCGA | 0.0927
72 | ACGCACAC | 0.082
73 | AGTGTGAT | 0.0891
74 | CGTCACAG | 0.282
75 | ACGTTAGA | -0.121
76 | CAGACGAC | -0.0246
77 | CAAACGCC | 0.0917
78 | AAGTCACA | -0.0717
79 | GGTTCCCA | -0.0522
80 | GGAATGAC | -0.133
81 | CGCCGTTA | -0.0337
82 | AAATCAGT | -0.00024
83 | ATTGGAGC | 0.0568
84 | ATAACCAC | 0.0331
85 | GTCACGAC | -0.0445
86 | CCCAACAG | -0.098

Random excerpt: two records from the list
Row | Sequence | PBM E-score
67 | CGGGGAGC | -0.0803
70 | GAGAAGTA | 0.0136
